No constants are given. Whether binding was seen depends on the method and setting. Some results given as binding are weak or reduced against the parent protein; the word gives no strength. For some assays here: Tags and fused reporters may be left off the sequences shown.
Assays:
[1] = target: ActRIIa receptor/Fc fusion (R&D Systems) (UniProt P27037); assay: plate direct binding assay, receptor-Fc detection, 12-point dilution
[2] = target: T1, BMPRII receptor/Fc fusion (R&D Systems) (UniProt Q13873); assay: as above
T1 sequence (looked up): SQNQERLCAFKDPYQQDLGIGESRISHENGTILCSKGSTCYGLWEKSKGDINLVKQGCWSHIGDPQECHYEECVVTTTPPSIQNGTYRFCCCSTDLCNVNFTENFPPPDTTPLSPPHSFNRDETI

Chains of the proteins cited; added tags and fusions are not shown. Lines headed by an entry give the natural chain unless they say otherwise; changes in a name come on top. Residues count along the entry.
UniProt P27037, residues 20-134: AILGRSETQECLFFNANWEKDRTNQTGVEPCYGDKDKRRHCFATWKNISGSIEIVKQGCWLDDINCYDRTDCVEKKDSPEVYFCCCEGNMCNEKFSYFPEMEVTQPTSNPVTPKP
UniProt P36894, residues 24-152: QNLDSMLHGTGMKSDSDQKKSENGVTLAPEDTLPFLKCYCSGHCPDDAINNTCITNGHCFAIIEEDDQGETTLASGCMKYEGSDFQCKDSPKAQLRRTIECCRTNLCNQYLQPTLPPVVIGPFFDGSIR
UniProt P18075: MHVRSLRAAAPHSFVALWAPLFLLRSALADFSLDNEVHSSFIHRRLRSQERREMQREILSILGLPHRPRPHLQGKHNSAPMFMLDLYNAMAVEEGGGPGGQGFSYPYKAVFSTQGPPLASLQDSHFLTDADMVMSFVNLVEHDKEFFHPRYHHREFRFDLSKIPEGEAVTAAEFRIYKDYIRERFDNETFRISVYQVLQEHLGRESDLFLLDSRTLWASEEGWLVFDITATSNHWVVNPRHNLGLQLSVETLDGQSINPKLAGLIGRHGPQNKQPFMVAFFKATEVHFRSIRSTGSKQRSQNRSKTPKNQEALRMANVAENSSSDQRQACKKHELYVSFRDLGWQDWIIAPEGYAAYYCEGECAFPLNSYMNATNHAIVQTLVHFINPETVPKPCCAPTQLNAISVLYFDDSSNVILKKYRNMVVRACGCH

[3] = target: BMPRIa receptor/Fc fusion (R&D Systems) (UniProt P36894); assay: as above
[4] = target: T2, BMPRIb receptor/Fc fusion (R&D Systems) (UniProt O00238); assay: as above
T2 sequence (looked up): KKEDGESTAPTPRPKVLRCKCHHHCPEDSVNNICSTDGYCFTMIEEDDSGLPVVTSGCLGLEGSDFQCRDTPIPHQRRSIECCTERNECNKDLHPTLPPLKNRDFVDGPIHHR

[5] = target: BMPRIa receptor/Fc fusion (R&D Systems) (UniProt P36894); assay: plate direct binding assay, 12-point titration of receptor-Fc ([ALK-3]) on captured BMP-7 from conditioned medium; axes carry no unit
[6] = target: T2, BMPRIb receptor/Fc fusion (R&D Systems); assay: plate direct binding assay, 12-point titration of receptor-Fc ([ALK-6]) on captured BMP-7 from conditioned medium; axes carry no unit
[7] = target: T1, BMPRII receptor/Fc fusion (R&D Systems); assay: plate direct binding assay, 12-point titration of receptor-Fc ([BMPRII]) on captured BMP-7 from conditioned medium; axes carry no unit
[8] = target: ActRIIa receptor/Fc fusion (R&D Systems) (UniProt P27037); assay: plate direct binding assay, 12-point titration of receptor-Fc ([ActRIIa]) on captured BMP-7 from conditioned medium; axes carry no unit
[9] = target: BMPRIa receptor/Fc fusion (R&D Systems) (UniProt P36894); assay: plate direct binding assay, 12-point titration of BMPRIa-Fc chimera on captured BMP-7; absorbance 450 nm; concentration axis carries no unit
[10] = target: T2, BMPRIb receptor/Fc fusion (R&D Systems); assay: plate direct binding assay, 12-point titration of BMPRIb-Fc chimera on captured BMP-7; absorbance 450 nm; concentration axis carries no unit
[11] = target: T1, BMPRII receptor/Fc fusion (R&D Systems); assay: plate direct binding assay, 12-point titration of BMPRII-Fc chimera on captured BMP-7; absorbance 450 nm; concentration axis carries no unit
[12] = target: ActRIIa receptor/Fc fusion (R&D Systems) (UniProt P27037); assay: plate direct binding assay, 12-point titration of ActRIIa-Fc chimera on captured BMP-7; absorbance 450 nm; concentration axis carries no unit
[13] = target: ActRIIa receptor/Fc fusion (R&D Systems) (UniProt P27037); assay: plate direct binding assay (ELISA-like): BMP-7 captured by anti-BMP-7 antibody, receptor-Fc titrated (x axis Receptor, ug/mL), anti-human IgG-HRP, absorbance 450 nm
[14] = target: T1, BMPRII receptor/Fc fusion (R&D Systems); assay: as above
[15] = target: BMPRIa receptor/Fc fusion (R&D Systems) (UniProt P36894); assay: as above
[16] = target: T2, BMPRIb receptor/Fc fusion (R&D Systems); assay: as above
[17] = target: ActRIIa receptor/Fc fusion (R&D Systems) (UniProt P27037); assay: plate direct binding assay, BMP-7 from conditioned medium captured by anti-BMP-7 antibody, receptor-Fc titrated in 12 points; EC50 drawn as a bar, no number given
[18] = target: T1, BMPRII receptor/Fc fusion (R&D Systems); assay: as above
[19] = target: BMPRIa receptor/Fc fusion (R&D Systems) (UniProt P36894); assay: as above
[20] = target: T2, BMPRIb receptor/Fc fusion (R&D Systems); assay: as above

Measured: binding

wild type human BMP-7 (Image clone) (from UniProt P18075 293-431 at identity 0.99)) (ligand)
binds: [1] | [2] | [3] | [4] | [5] | [6] | [7] | [8] | [9] | [10] | [11] | [12] | [13] | [14] | [15] | [16] | [17] | [18] | [19] | [20]
